Assay results published in article PMC7530677.
Results are given in words; binding and its absence hold for the method and conditions named.

Biological target: Epiphyas postvittana pheromone binding protein 3 (Epiphyas postvittana)
Assay: SEC; size exclusion chromatography in Tris/HCl pH 7.5, 100 mM NaCl, after Ni-NTA affinity chromatography; uncleaved C-terminal His10 tag; both purified

binding: no binding
B1: Epiphyas postvittana pheromone binding protein 3 (protein)
chain: SEEVMKDLTSGFIKVLEECKKELNLSESIINDLYNYWKEDYSLLNRDVGCAIVCMSKKLELIDTSGKIHHGNAEDLAKKHGADSEVAAKLVAILHECEKTHDAIEDQCMKALEIAKCFRTNIHELNWAPKMDVVITEVLTEV
